Reference: publication PMC6258466
Numbering of substitutions follows the chain as printed. No constants are given. Whether binding was seen depends on the method and setting. In cells and extracts the contact can be indirect. Some binding calls cover weakened binding; strength is not graded here.

B1: StREM1.3 (Solanum tuberosum REMORIN from group 1b, homolog 3) (protein, UniProt P93788 1-198)
chain: MAELEAKKVEIVDPAPPAPGPVEAPKEVVADEKAIVAPALPPPAEEKEKPDDSKALVVVETKAPEPADEKKEGSIDRDAVLARVATEKRVSLIKAWEESEKSKAENKAQKKVSAIGAWENSKKANLEAELKKMEEQLEKKKAEYTEKMKNKIALLHKEAEEKRAMIEAKRGEDLLKAEELAAKYRATGTAPKKILGIF
B2: REM1.3^AAA (phosphodead mutant S74/T86/S91AAA of StREM1.3) (protein, UniProt P93788 1-198)
chain: B1 chain with S74A, T86A, S91A
B3: REM1.3^DDD (phosphomimetic mutant S74/T86/S91DDD of StREM1.3) (protein, UniProt P93788 1-198)
chain: B1 chain with S74D, T86D, S91D
B4: AtREM1.2 (Arabidopsis thaliana group 1b REMORIN, At3g61260) (protein, UniProt Q9M2D8 1-212)
chain: MAEEQKIALESESPAKVTTPAPADTPAPAPAEIPAPAPAPTPADVTKDVAEEKIQNPPPEQIFDDSKALTVVEKPVEEPAPAKPASASLDRDVKLADLSKEKRLSFVRAWEESEKSKAENKAEKKIADVHAWENSKKAAVEAQLKKIEEQLEKKKAEYAERMKNKVAAIHKEAEERRAMIEAKRGEDVLKAEETAAKYRATGIVPKATCGCF
B5: AtREM1.3 (Arabidopsis thaliana group 1b REMORIN, At2g45820) (protein, UniProt O80837 1-190)
chain: MAEEQKTSKVDVESPAVLAPAKEPTPAPVEVADEKIHNPPPVESKALAVVEKPIEEHTPKKASSGSADRDVILADLEKEKKTSFIKAWEESEKSKAENRAQKKISDVHAWENSKKAAVEAQLRKIEEKLEKKKAQYGEKMKNKVAAIHKLAEEKRAMVEAKKGEELLKAEEMGAKYRATGVVPKATCGCF

The binders below were run against AtCPK3CA (constitutive active Arabidopsis thaliana CALCIUM-… PROTEIN KINASE 3, residues 1-342) (Arabidopsis thaliana) (UniProt Q42479) (assay: split reporter; BiFC in planta: split YFP fusions (pSITE-BiFC vectors) transiently expressed in N. benthamiana epidermal cells; confocal images (Zeiss LSM 880) at 2 DAI; mean fluorescence intensity at the cell boundary by ImageJ).

Binder	binding
B1	binds
B2	binds
B3	binds
B4	binds
B5	binds

What follows are binders tested against StREM1.3 (Solanum tuberosum REMORIN from group 1b, homolog 3) (Solanum tuberosum) (UniProt P93788) in the same assay as above.

Binder	binding
B1	binds
